Experimental data as given in patent publication US12006373.
Results are given in words; binding and its absence hold for the method and conditions named. Some entries that bind do so weakly or less than the wild type.

Sequences of proteins named here, by UniProt entry; tags and fusion partners are left off. A change or cut given only in a name is not applied to a line headed by its entry. A line that says so, or that is headed by a name, gives the form on record, which may keep a tag or linker. Residues count along the entry.
UniProt P07766: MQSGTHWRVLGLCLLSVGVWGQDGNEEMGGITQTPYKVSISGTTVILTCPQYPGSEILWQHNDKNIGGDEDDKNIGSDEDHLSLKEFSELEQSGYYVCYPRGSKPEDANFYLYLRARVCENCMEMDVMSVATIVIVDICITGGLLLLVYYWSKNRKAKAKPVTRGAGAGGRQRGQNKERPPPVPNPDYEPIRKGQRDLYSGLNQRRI
human CD3ε expressed on Jurkat T cells (clone E6-1) as part of TCR-CD3 complexes: residues 23-207 of P07766
recombinant human CD3ε protein with Fc-tag (Sino Biological): residues 23-126 of P07766

Assays:
[1] = molecular target: human CD3ε expressed on Jurkat T cells (clone E6-1) as part of TCR-CD3 complexes (human) (UniProt P07766); experiment: flow cytometry, phage on Jurkat cells
[2] = molecular target: human CD3ε expressed on Jurkat T cells (clone E6-1) as part of TCR-CD3 complexes (human) (UniProt P07766); experiment: flow cytometry, phage on Jurkat cells, anti-M13 antibody
[3] = molecular target: human CD3ε expressed on Jurkat T cells (clone E6-1) as part of TCR-CD3 complexes (human) (UniProt P07766); experiment: flow cytometry, 10^10 PFU phage per 10^5 Jurkat cells, anti-M13 antibody
[4] = molecular target: recombinant human CD3ε biotinylated at the C-terminus, on streptavidin-coated microbeads (human) (UniProt P07766); experiment: flow cytometry, phage on streptavidin microbeads decorated with biotinylated CD3ε
[5] = molecular target: recombinant human CD3ε protein with Fc-tag (Sino Biological) (human) (UniProt P07766); experiment: biopanning of Ph.D.-7 phage library on recombinant CD3ε-Fc captured on protein A/G magnetic beads
[6] = molecular target: human CD3ε expressed on Jurkat T cells (clone E6-1) as part of TCR-CD3 complexes (human) (UniProt P07766); experiment: flow cytometry, phage on paraformaldehyde-fixed Jurkat cells, anti-M13 antibody

Measured: binding

WSLGYTGGGGS (peptide, not shown: large carriers) [phage clone 13 displaying anti-CD3ε peptide 13 (WSLGYTG)]
not listed: [6]
binds: all other assays above

FWSSPQMGGGS (peptide, not shown: large carriers) [phage clone 11 displaying anti-CD3ε peptide 11 (FWSSPQM)]
binds: [1] | [6] | [5]
